PubChem BioAssay AID504793 – Drosophila RNAi Screening Center, 2011
Aim: 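Genes required for cells to halt at G2/M after double-strand DNA breaks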 (primary screen). Cell system: Drosophila S2R+ cells. Knock-down reagent: long dsRNA against Drosophila genes, about 0.25 µg dsRNA per well. Time to read-out: 4 days of dsRNA, then 4 hours of drug before read-out. Treatment: doxorubicin 0.5 µM for 4 hours to cause double-strand breaks, in cells also given a low, harmless dose of dsRNA against nbs to sensitise the assay. Measurement: 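Per-well count of mitotic cells stained for phospho-histone H3 after doxorubicin exposure, used as mitotic index; counts are raw and not normalised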. Direction: mitotic cells: higher = more cells in mitosis, weaker G2 arrest. Rule for the call: 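a call needs confirmation in secondary tests, with other dsRNAs and a check of mitotic timing without damage, not just a high primary count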. Calls: active = confirmed in follow-up tests; inactive = not confirmed.
The deposit covers about 23,000 reagents; shown is a random part of those with a known target gene and a result. In the full data, 62 (0.27%) are marked active. 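Calls come from follow-up tests whose scores are not deposited, so confirmed genes may have low counts here; counts are not normalised per plate.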 Raw values vary from plate to plate and are shown uncorrected. Names joined by + are all predicted targets of the reagent.

gene | DRSC id | mitotic cells, replicate 1 | mitotic cells, replicate 2 | outcome
CG12104 | DRSC08254 | 11 | – | inactive
CG12104 | DRSC26773 | 7 | – | inactive
Sdc (Syndecan) | DRSC04654 | 10 | – | inactive
Sdc (Syndecan) | DRSC25762 | 4 | – | inactive
CG34047 (retired record) | DRSC07857 | 18 | – | inactive
CG34047 (retired record) | DRSC21689 | 4 | – | inactive
CG10866 | DRSC08171 | 9 | – | inactive
CG10866 | DRSC29672 | 6 | – | inactive
CG34396 | DRSC04245 | 4 | – | inactive
CG34396 | DRSC04246 | 7 | – | inactive
CG34396 | DRSC29674 | 14 | – | inactive
lbk (lambik) | DRSC07178 | 4 | – | inactive
CG42361 | DRSC04391 | 6 | – | inactive
CG15005 | DRSC08459 | 7 | – | inactive
CG15005 | DRSC26556 | 4 | – | inactive
Nlg1 (Neuroligin 1) | DRSC12485 | 6 | – | inactive
Nlg1 (Neuroligin 1) | DRSC12532 | 5 | – | inactive
Nlg1 (Neuroligin 1) | DRSC12533 | 8 | – | inactive
Nlg1 (Neuroligin 1) | DRSC12539 | 2 | – | inactive
Frl (Formin-like) | DRSC09300 | 9 | – | inactive
Frl (Formin-like) | DRSC10027 | 6 | – | inactive
Frl (Formin-like) | DRSC10716 | 6 | – | inactive
Frl (Formin-like) | DRSC28783 | 5 | – | inactive
CG5098 | DRSC06915 | 7 | – | inactive
CG5098 | DRSC24664 | 14 | – | inactive
GIIIspla2 (Phospholipase A2 group III) | DRSC18094 | 3 | – | inactive
GIIIspla2 (Phospholipase A2 group III) | DRSC27426 | 8 | – | inactive
CG13667 | DRSC10028 | 9 | – | inactive
BEAF-32 + CG42254 (retired record) | DRSC05503 | 7 | – | inactive
CG18659 | DRSC06784 | 11 | – | inactive
SmB (Small ribonucleoprotein particle protein SmB) | DRSC03437 | 6 | – | inactive
SmB (Small ribonucleoprotein particle protein SmB) | DRSC26259 | 1 | – | inactive
GMF (Glia maturation factor) | DRSC01928 | 7 | – | inactive
sut1 (sugar transporter 1) | DRSC07700 | 4 | – | inactive
gukh (GUK-holder) | DRSC14768 | 5 | – | inactive
gukh (GUK-holder) | DRSC15806 | 4 | – | inactive
gukh (GUK-holder) | DRSC15944 | 11 | – | inactive
nompB (no mechanoreceptor potential B) | DRSC03701 | 11 | – | inactive
nompB (no mechanoreceptor potential B) | DRSC03731 | 8 | – | inactive
CG14881 | DRSC15005 | 9 | – | inactive
CG14881 | DRSC25898 | 6 | – | inactive
nab | DRSC08455 | 6 | – | inactive
nab | DRSC08456 | 4 | – | inactive
RpS10b (Ribosomal protein S10b) | DRSC19561 | 11 | – | inactive
CG12237 | DRSC19449 | 18 | – | inactive
CG12237 | DRSC22256 | 10 | – | inactive
CG12237 | DRSC24647 | 7 | – | inactive
CG31454 | DRSC14365 | 3 | – | inactive
CG31454 | DRSC22801 | 10 | – | inactive
CG31454 | DRSC24377 | 8 | – | inactive
CG33489 | DRSC10588 | 3 | – | inactive
CG33489 | DRSC26653 | 4 | – | inactive
CG7290 | DRSC10800 | 8 | – | inactive
CG7290 | DRSC26651 | 6 | – | inactive
CG10527 | DRSC04078 | 8 | – | inactive
CG10527 | DRSC27160 | 2 | – | inactive
Caf1-105 (Chromatin assembly factor 1, p105 subunit) | DRSC06209 | 7 | – | inactive
bsf (bicoid stability factor) | DRSC02035 | 4 | – | inactive
CG5493 + CG5327 | DRSC06938 | 6 | – | inactive
LS2 (Large Subunit 2) | DRSC04340 | 5 | – | inactive
CG14115 | DRSC10118 | 9 | – | inactive
CG4611 | DRSC10434 | 2 | – | inactive
CG4611 | DRSC26382 | 6 | – | inactive
RpL32 (Ribosomal protein L32) | DRSC16835 | 6 | 10 | inactive
RpL32 (Ribosomal protein L32) | DRSC27164 | 13 | – | inactive
CG32187 | DRSC10521 | 3 | – | inactive
lectin-30A | DRSC02560 | 4 | – | inactive
CG11125 | DRSC06042 | 3 | – | inactive
bocks (bocksbeutel) | DRSC16489 | 11 | – | inactive
CG32121 | DRSC09265 | 14 | – | inactive
CG31013 | DRSC16542 | 14 | – | inactive
vri (vrille) | DRSC23174 | 2 | – | inactive
vri (vrille) | DRSC26054 | 3 | – | inactive
CG31415 | DRSC22409 | 13 | – | inactive
CG11666 | DRSC22379 | 3 | – | inactive
CG6106 | DRSC19971 | 17 | – | inactive
CG6106 | DRSC29276 | – | – | inactive
Ccdc58 + CG34116 | DRSC10105 | 5 | – | inactive
CG14929 + CG4970 | DRSC02411 | 7 | – | inactive
CG14929 + CG4970 | DRSC02796 | 4 | – | inactive
mthl12 (methuselah-like 12) | DRSC12964 | 10 | – | inactive
Idgf1 (Imaginal disc growth factor 1) | DRSC03349 | 6 | – | inactive
Idgf1 (Imaginal disc growth factor 1) | DRSC26045 | 4 | – | inactive
Rab26 | DRSC11838 | 7 | – | inactive
Rab26 | DRSC11839 | 9 | – | inactive
Rab26 | DRSC24968 | 6 | – | inactive
Rab26 | DRSC27712 | 3 | – | inactive
vih (vihar) | DRSC09778 | 390 | – | inactive
vih (vihar) | DRSC23625 | 176 | – | inactive
CG3168 | DRSC18287 | 2 | – | inactive
CG3168 | DRSC25481 | 2 | – | inactive
Arpc5 (Actin-related protein 2/3 complex, subunit 5) | DRSC00730 | 4 | – | inactive
Ccdc114 (Coiled-coil domain containing protein 114) | DRSC15025 | 6 | – | inactive
Ac3 (Adenylate cyclase 3) | DRSC03692 | 2 | – | inactive
Pgant8 (Polypeptide N-Acetylgalactosaminyltransferase 8) | DRSC10801 | 6 | – | inactive
Pgant8 (Polypeptide N-Acetylgalactosaminyltransferase 8) | DRSC26909 | 13 | – | inactive
SkpC (SKP1-related C) | DRSC20375 | 6 | – | inactive
SkpC (SKP1-related C) | DRSC26926 | 4 | – | inactive
CG15210 | DRSC19656 | 5 | – | inactive
CG15210 | DRSC27768 | 1 | – | inactive
CG7065 | DRSC18420 | 5 | – | inactive
CG7065 | DRSC25280 | 3 | – | inactive
CG32706 + CG6999 | DRSC18412 | 14 | – | inactive
CG32706 + CG6999 | DRSC23954 | 8 | – | inactive
CG7326 | DRSC20037 | 4 | – | inactive
CG8833 | DRSC11050 | 7 | – | inactive
Pbgs (Porphobilinogen synthase) | DRSC09718 | 5 | – | inactive
Ir41a (Ionotropic receptor 41a) | DRSC04730 | 9 | – | inactive
Ir41a (Ionotropic receptor 41a) | DRSC04875 | 7 | – | inactive
CG13833 | DRSC14683 | 5 | – | inactive
